PubChem BioAssay AID1259405, NCATS – 2018

Test: 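Silenced genes that increase secreted GFP made by CHO cells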 (primary screen)
Cell system: Chinese hamster CHO-K1 ovary cells with stable secreted eGFP expression
Reagents: single siRNA against mouse genes, 0.8 pmol siRNA per well (2 µl of 400 nM stock)
Timing: 3 days
Read-out: 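Percent of the per-plate non-targeting control median for intracellular GFP per well by laser scanning cytometry and for cell viability by ATP luminescence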
Direction: GFP, % of control: higher = more GFP per well, higher productivity; viability (ATP), % of control: higher = more viable cells (more ATP)
Active means: 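Called active when intracellular GFP, relative to negative control, is at or above 120%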
The whole screen tested about 50,000 reagents; this is an unselected part. About 4,000 of all reagents (8%) count as active. 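Mouse siRNA library applied to hamster cells; one well for each siRNA.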 The numbers tell different reagents against one gene apart.

The opening 3 records, ahead of the listing:
| gene symbol | siRNA no. | GFP, % of control | viability (ATP), % of control | call |
| --- | --- | --- | --- | --- |
| Pgm3 | 1 | 143 | 138 | active |
| Pgm3 | 2 | 122 | 84.4 | active |
| Pgm3 | 3 | 62.6 | 66.1 | inactive |

Results, from the start:
| gene symbol | siRNA no. | GFP, % of control | viability (ATP), % of control | call |
| --- | --- | --- | --- | --- |
| Pgm3 | 1 | 143 | 138 | active |
| Pgm3 | 2 | 122 | 84.4 | active |
| Pgm3 | 3 | 62.6 | 66.1 | inactive |
| Or52e3 | 1 | 85.4 | 69.1 | inactive |
| Or52e3 | 2 | 31.4 | 62.3 | inactive |
| Or52e3 | 3 | 40.7 | 75.2 | inactive |
| Ybx2 | 1 | 80.7 | 100 | inactive |
| Ybx2 | 2 | 57.9 | 70.7 | inactive |
| Ybx2 | 3 | 114 | 94.8 | inactive |
| Acad11 | 1 | 112 | 107 | inactive |
| Acad11 | 2 | 100 | 97.7 | inactive |
| Fcgr1 | 1 | 115 | 91.4 | inactive |
| Fcgr1 | 2 | 101 | 103 | inactive |
| Fcgr1 | 3 | 89.4 | 51.1 | inactive |
| Serpinb12 | 1 | 122 | 90.7 | active |
| Serpinb12 | 2 | 108 | 98.2 | inactive |
| Serpinb12 | 3 | 105 | 114 | inactive |
| Chst5 | 1 | 91.9 | 75.5 | inactive |
| Chst5 | 2 | 40.4 | 71.9 | inactive |
| Chst5 | 3 | 100 | 116 | inactive |
| Ift46 | 1 | 62.9 | 47.1 | inactive |
| Ift46 | 2 | 72.9 | 88.1 | inactive |
| Ift46 | 3 | 24 | 40.2 | inactive |
| Pdik1l | 1 | 69.1 | 85 | inactive |
| Adra1a | 1 | 94.5 | 67.8 | inactive |
| Adra1a | 2 | 69.9 | 79.1 | inactive |
| Adra1a | 3 | 42.3 | 51 | inactive |
| Odr4 | 1 | 155 | 98.9 | active |
| Odr4 | 2 | 73.3 | 73.1 | inactive |
| Odr4 | 3 | 48.7 | 62.7 | inactive |
| Fgf1 | 1 | 80.6 | 77.3 | inactive |
| Fgf1 | 2 | 88 | 75.7 | inactive |
| Fgf1 | 3 | 91.1 | 112 | inactive |
| Glyr1 | 1 | 94.9 | 117 | inactive |
| Glyr1 | 2 | 108 | 103 | inactive |
| Srr | 1 | 146 | 110 | active |
| Srr | 2 | 57 | 64.8 | inactive |
| Srr | 3 | 61.9 | 64 | inactive |
| Sptlc1 | 1 | 81.3 | 80 | inactive |
| Sptlc1 | 2 | 71.8 | 101 | inactive |
| Sptlc1 | 3 | 107 | 100 | inactive |
| Tomm20 | 1 | 80.8 | 60.8 | inactive |
| Tomm20 | 2 | 105 | 68.1 | inactive |
| Tomm20 | 3 | 128 | 126 | active |
| Surf2 | 1 | 84.5 | 70.5 | inactive |
| Surf2 | 2 | 103 | 98.3 | inactive |
| Surf2 | 3 | 74.1 | 72.4 | inactive |
| Zfp644 | 1 | 58.4 | 73.4 | inactive |
| Zfp644 | 2 | 59.1 | 82.5 | inactive |
| Zfp644 | 3 | 99.1 | 93.9 | inactive |
| Slc39a8 | 1 | 104 | 101 | inactive |
| Slc39a8 | 2 | 158 | 85.1 | active |
| Slc39a8 | 3 | 91.4 | 77.4 | inactive |
| Fcnb | 1 | 88.1 | 93.1 | inactive |
| Fcnb | 2 | 62.8 | 58.1 | inactive |
| Trak1 | 1 | 77.1 | 80.8 | inactive |
| Trak1 | 2 | 65.2 | 82.9 | inactive |
